{"source": "patent US20250288543A1", "about": "“METHODS OF ENHANCING BENEFICIAL SHORT-CHAIN AND MEDIUM-CHAIN FATTY ACIDS PRODUCTION BY GUT MICROBIOME” (Arizona Board of Regents on Behalf of Arizona State …, priority 2024, published 2025)", "origin": "cited, not measured here", "key": {"[1]": {"details": "in vivo; cited from earlier work"}, "[2]": {"details": "mechanism related to vagal afferent; cited from earlier work"}}, "note": "At least one structure is not confirmed: it was looked up by name or label, or the drawing left a doubt.", "data": [{"smiles": "CCCC(=O)O", "note": "[butyrate, Butyrate]", "values": [{"measurement": "Progression of diet-induced atherosclerosis", "setting": "[1]", "result": "inhibited the progression"}, {"measurement": "Efficacy in suppressing food intake (rank order)", "setting": "[2]", "result": "butyrate>propionate>acetate"}]}]}
